This is one part of the list.
Key:
Test in all cases: log2 fold change, soluble protein after heating vs DMSO (PISA); higher = thermal stabilisation; K562 lysate, 10 uM; active = over 0.2 and 3.5 SD of the protein, either way, in both replicates (recomputed)
vemurafenib = compound: CCCS(=O)(=O)Nc1ccc(F)c(C(=O)c2c[nH]c3ncc(-c4ccc(Cl)cc4)cc23)c1F [vemurafenib]
Summary of the method: (§1)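 Soluble protein was defined as the supernatant remaining after 21,000xg for 90 min, following pooling of heated aliquots and adjustment to 0.5% NP-40 at 4°C. Before that, crude K562 extract at 1 mg/mL protein in PBS pH 7.4 with 1 mM MgCl2 was treated with 10 μM compound for 30 min and heated for 3 min across 48°C-58°C. Quantification used TMTpro 16plex LC-MS/MS with channel sums equalised, and values are log-two fold changes in thermal stability relative to solvent controls from duplicates.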

Chains of the proteins cited; added tags and fusions are not shown. Lines headed by an entry give the natural chain unless they say otherwise; changes in a name come on top.
UniProt Q05823: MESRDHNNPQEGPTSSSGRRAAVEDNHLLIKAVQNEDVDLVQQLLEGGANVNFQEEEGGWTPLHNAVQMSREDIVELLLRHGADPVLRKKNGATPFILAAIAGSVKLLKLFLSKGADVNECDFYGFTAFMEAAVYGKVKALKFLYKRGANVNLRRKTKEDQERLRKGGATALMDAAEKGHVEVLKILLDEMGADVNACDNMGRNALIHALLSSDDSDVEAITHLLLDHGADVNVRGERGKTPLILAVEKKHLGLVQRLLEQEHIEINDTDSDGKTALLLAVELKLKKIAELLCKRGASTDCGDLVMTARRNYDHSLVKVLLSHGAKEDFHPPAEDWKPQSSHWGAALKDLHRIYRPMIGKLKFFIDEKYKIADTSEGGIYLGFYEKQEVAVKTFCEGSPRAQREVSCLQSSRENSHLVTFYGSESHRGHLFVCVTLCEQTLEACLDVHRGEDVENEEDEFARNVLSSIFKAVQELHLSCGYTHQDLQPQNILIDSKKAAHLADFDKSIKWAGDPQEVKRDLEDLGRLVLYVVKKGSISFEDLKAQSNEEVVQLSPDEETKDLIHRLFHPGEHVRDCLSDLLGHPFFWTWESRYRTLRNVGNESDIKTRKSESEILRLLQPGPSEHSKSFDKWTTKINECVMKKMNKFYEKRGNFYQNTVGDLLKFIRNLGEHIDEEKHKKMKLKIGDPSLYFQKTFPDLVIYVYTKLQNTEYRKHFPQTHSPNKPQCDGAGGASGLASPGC
UniProt Q8IXW5, whole entry, looked up: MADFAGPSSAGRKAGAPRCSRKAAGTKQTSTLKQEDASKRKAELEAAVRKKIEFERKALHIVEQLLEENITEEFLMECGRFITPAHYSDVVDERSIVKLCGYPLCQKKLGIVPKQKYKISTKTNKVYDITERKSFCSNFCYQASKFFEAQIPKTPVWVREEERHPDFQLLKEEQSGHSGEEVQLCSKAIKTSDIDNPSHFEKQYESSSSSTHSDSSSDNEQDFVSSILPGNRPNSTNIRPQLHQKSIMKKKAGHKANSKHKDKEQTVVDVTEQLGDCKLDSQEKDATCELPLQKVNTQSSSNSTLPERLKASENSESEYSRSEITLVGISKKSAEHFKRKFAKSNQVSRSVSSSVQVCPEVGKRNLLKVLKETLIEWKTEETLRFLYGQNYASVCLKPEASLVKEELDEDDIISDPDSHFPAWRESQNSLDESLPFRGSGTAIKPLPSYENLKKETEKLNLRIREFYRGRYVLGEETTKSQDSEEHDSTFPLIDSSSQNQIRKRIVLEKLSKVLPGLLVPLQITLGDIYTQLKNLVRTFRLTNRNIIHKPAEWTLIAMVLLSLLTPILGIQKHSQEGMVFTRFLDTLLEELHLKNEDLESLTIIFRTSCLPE
UniProt O75150, whole entry, looked up: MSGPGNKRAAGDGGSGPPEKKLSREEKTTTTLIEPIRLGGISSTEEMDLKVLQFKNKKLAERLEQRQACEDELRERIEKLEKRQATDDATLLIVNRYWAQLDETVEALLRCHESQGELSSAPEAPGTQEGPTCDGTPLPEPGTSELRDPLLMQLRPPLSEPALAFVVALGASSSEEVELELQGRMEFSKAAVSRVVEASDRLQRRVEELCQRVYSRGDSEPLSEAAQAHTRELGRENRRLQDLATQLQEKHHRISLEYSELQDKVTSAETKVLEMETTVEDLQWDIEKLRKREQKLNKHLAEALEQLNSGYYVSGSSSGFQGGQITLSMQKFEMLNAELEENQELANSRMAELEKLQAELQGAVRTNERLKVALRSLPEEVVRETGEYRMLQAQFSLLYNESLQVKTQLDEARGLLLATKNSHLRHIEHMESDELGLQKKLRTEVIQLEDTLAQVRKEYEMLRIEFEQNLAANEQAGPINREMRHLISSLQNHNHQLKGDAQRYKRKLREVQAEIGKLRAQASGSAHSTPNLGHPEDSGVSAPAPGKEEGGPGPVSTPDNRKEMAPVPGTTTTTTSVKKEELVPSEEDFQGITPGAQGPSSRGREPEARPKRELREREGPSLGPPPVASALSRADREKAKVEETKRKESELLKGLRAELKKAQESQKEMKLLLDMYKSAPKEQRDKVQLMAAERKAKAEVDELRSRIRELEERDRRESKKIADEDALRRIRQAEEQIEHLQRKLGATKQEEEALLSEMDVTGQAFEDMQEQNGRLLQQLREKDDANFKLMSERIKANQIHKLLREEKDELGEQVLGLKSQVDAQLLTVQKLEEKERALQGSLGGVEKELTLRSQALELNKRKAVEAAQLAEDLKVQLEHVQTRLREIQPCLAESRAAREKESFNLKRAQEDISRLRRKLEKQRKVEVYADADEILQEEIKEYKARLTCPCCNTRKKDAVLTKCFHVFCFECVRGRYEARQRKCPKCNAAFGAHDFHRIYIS
UniProt Q9NWS8: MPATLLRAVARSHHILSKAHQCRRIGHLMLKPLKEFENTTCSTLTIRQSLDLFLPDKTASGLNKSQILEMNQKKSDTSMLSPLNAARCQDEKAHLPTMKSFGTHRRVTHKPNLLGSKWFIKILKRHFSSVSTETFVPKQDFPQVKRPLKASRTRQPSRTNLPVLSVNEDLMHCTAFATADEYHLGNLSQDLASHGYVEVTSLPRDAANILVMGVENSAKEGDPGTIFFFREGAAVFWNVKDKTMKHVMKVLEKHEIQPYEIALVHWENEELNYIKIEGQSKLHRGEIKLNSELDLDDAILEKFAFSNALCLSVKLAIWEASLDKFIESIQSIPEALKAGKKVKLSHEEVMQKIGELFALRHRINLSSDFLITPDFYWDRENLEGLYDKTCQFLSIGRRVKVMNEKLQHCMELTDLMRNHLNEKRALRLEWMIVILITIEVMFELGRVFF
UniProt Q9H6T3, whole entry, looked up: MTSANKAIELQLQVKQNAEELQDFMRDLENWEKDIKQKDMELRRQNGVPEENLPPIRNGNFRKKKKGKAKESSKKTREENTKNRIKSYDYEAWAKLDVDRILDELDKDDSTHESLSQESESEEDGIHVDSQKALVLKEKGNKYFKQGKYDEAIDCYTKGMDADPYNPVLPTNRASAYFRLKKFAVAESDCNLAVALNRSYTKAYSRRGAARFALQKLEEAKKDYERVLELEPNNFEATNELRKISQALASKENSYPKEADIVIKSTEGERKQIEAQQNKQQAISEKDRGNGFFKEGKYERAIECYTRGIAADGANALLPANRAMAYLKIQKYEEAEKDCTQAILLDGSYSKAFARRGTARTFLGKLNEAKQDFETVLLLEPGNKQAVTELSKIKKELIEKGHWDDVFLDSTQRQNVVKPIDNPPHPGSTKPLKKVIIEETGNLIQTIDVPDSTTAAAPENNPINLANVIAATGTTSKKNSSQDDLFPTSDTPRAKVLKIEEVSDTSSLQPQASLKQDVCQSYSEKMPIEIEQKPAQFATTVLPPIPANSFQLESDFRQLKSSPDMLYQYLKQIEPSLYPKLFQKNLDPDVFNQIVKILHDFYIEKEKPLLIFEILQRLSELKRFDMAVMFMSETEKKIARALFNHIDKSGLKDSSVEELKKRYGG
UniProt Q9NTX7: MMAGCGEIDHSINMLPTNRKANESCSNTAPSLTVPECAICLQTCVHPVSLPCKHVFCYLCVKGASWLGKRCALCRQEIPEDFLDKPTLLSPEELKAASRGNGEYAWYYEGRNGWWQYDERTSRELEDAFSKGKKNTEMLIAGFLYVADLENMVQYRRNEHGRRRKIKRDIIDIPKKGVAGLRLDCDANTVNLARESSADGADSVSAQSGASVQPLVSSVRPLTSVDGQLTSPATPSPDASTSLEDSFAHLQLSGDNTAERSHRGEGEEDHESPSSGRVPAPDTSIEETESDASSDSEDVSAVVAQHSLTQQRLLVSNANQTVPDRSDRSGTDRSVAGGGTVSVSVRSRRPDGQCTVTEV
UniProt P35244: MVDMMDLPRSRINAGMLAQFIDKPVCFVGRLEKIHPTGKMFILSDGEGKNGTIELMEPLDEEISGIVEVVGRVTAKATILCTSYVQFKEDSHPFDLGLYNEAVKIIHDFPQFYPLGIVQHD
UniProt P61586, whole entry, looked up: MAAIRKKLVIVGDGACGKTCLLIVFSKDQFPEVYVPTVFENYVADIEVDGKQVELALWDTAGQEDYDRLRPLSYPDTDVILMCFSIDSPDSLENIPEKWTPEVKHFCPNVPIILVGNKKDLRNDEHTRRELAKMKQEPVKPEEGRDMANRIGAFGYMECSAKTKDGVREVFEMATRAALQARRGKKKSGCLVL
UniProt Q7L0Q8: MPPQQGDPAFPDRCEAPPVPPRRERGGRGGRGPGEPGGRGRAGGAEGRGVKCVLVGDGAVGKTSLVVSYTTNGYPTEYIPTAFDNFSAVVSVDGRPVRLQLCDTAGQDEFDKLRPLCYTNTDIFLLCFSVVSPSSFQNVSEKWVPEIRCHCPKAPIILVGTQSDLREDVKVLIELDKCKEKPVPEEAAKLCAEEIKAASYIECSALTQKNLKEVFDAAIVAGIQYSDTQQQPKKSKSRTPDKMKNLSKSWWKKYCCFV
UniProt Q9BVS4: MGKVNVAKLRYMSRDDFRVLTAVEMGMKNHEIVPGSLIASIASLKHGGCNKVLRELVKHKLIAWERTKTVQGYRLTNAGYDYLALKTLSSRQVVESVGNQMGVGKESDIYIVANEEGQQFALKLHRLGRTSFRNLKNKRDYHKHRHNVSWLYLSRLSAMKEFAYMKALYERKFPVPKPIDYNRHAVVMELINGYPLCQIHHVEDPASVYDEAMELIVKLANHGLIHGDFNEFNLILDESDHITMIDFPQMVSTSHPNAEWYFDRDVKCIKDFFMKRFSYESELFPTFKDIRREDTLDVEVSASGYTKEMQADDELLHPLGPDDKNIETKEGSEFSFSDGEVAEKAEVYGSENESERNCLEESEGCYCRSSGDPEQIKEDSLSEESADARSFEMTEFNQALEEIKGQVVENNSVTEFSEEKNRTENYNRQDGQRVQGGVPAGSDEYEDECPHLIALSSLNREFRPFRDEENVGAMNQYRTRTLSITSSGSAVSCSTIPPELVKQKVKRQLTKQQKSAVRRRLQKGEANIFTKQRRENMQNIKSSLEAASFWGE
UniProt Q8TA86: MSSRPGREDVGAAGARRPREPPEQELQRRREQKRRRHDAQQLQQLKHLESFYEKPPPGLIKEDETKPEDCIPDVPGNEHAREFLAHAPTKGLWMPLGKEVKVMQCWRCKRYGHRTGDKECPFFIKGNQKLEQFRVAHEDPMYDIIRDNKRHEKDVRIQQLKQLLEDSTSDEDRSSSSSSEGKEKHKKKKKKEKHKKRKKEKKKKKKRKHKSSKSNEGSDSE
UniProt Q9BWH6: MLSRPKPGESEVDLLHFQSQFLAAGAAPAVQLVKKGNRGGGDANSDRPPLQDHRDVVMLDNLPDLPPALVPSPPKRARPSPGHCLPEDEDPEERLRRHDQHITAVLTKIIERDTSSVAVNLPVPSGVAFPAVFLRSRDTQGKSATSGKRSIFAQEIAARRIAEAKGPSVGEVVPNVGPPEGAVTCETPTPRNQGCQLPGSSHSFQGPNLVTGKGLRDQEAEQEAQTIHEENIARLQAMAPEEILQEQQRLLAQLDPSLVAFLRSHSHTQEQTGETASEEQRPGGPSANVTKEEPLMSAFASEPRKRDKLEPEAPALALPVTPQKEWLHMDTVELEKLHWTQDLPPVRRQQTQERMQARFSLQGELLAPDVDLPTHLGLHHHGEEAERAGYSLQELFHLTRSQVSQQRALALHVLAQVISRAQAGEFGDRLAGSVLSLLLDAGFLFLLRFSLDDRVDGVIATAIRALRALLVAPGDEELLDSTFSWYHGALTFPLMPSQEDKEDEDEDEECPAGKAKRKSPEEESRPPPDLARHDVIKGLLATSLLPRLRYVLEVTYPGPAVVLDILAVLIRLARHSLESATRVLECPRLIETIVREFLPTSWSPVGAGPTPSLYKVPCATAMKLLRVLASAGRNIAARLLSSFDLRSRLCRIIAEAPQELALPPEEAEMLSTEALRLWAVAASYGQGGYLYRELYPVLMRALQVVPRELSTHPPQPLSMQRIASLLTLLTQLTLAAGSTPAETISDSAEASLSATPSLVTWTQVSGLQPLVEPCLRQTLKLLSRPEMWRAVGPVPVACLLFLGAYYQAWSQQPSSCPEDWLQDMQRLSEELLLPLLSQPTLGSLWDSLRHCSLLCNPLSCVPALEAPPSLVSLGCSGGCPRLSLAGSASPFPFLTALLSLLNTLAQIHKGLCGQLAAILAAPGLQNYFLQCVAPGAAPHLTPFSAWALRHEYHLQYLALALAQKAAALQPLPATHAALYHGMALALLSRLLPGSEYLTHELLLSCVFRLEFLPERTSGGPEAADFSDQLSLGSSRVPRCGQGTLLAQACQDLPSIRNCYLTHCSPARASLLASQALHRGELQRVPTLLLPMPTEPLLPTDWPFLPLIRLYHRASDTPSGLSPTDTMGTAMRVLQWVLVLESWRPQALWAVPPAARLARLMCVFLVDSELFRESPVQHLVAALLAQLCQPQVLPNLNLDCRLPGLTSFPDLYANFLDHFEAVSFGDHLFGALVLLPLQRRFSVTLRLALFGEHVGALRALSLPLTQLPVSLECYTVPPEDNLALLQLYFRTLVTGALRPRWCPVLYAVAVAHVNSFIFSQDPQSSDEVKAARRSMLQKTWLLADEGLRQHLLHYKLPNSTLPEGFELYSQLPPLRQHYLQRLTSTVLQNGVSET

[1] = compound: CCCS(=O)(=O)Nc1ccc(F)c(C(=O)c2c[nH]c3ncc(Cl)cc23)c1F
Summary of the method: as §1

barasertib = compound: CCN(CCCOc1ccc2c(Nc3cc(CC(=O)Nc4cccc(F)c4)[nH]n3)ncnc2c1)CCOP(=O)(O)O [barasertib]
Summary of the method: as §1

[2] = compound: CC[C@@H]1C(=O)N(C)c2cnc(Nc3ccc(C(=O)NC4CCN(C)CC4)cc3OC)nc2N1C1CCCC1
Summary of the method: as §1

volasertib = compound: CC[C@@H]1C(=O)N(C)c2cnc(Nc3ccc(C(=O)N[C@H]4CC[C@H](N5CCN(CC6CC6)CC5)CC4)cc3OC)nc2N1C(C)C [volasertib]
Summary of the method: as §1

[3] = compound: CCn1c(C(=O)N(C2CC2)C2CC2)cc2c3c(ncn3C)c(Nc3cc(C)n(C)n3)nc21
Summary of the method: as §1

[4] = compound: CCn1cc(-c2ccnc3[nH]c(-c4cccc(CN(C)C)c4)cc23)c(-c2ccc(NC(=O)N(C)C)cc2)n1
Summary of the method: as §1

[5] = compound: CN1CCC(CNc2ccc3ncc(-c4cccc(OC(F)(F)F)c4)n3n2)CC1
Summary of the method: as §1

saracatinib = compound: CN1CCN(CCOc2cc(OC3CCOCC3)c3c(Nc4c(Cl)ccc5c4OCO5)ncnc3c2)CC1 [saracatinib]
Summary of the method: as §1

sotrastaurin = compound: CN1CCN(c2nc(C3=C(c4c[nH]c5ccccc45)C(=O)NC3=O)c3ccccc3n2)CC1 [sotrastaurin]
Summary of the method: as §1

Target	log2 fold change (vemurafenib)	log2 fold change [1]	log2 fold change (barasertib)	log2 fold change [2]	log2 fold change (volasertib)	log2 fold change [3]	log2 fold change [4]	log2 fold change [5]	log2 fold change (saracatinib)	log2 fold change (sotrastaurin)
RILPL1 (UniProt Q5EBL4)	inactive: 0.001	inactive: 0.024	inactive: 0.004	inactive: 0.032	inactive: -0.002	inactive: 0.033	inactive: 0.011	inactive: 0.057	inactive: -0.015	inactive: 0.014
RNASEL (UniProt Q05823)	inactive: -0.004	inactive: 0.053	inactive: 0.077	inactive: -0.017	inactive: -0.103	inactive: 0.012	inactive: -0.006	inactive: -0.025	inactive: -0.011	inactive: 0.024
RPAP2 (UniProt Q8IXW5)	inactive: 0.02	inactive: 0.013	inactive: -0.035	inactive: 0.011	inactive: 0.009	inactive: -0.069	inactive: -0.031	inactive: 0.01	inactive: -0.028	inactive: 0.05
RNF40 (UniProt O75150)	inactive: 0.001	inactive: 0.008	inactive: 0.043	inactive: -0.005	inactive: -0.047	inactive: 0.002	inactive: 0.011	inactive: -0.033	inactive: 0.033	inactive: -0.012
RMND1 (UniProt Q9NWS8)	inactive: -0.02	inactive: -0.023	inactive: -0.001	inactive: 0.05	inactive: -0.019	inactive: 0.046	inactive: -0.035	inactive: 0.013	inactive: 0.029	inactive: 0.029
RNGTT (UniProt O60942)	inactive: -0.026	inactive: 0.056	inactive: -0.022	inactive: -0.038	inactive: -0.05	inactive: 0.038	inactive: -0.05	inactive: -0.006	inactive: 0.033	inactive: -0.036
RPAP3 (UniProt Q9H6T3)	inactive: 0	inactive: 0.011	inactive: 0.009	inactive: -0.015	inactive: -0.046	inactive: 0.009	inactive: -0.016	inactive: -0.06	inactive: 0.013	inactive: 0.008
RILP (UniProt Q96NA2)	inactive: -0.005	inactive: 0.036	inactive: -0.006	inactive: 0	inactive: 0	inactive: 0.054	inactive: -0.032	inactive: 0.044	inactive: 0.012	inactive: -0.025
RNF146 (UniProt Q9NTX7)	inactive: 0.015	inactive: 0.025	inactive: -0.001	inactive: 0.1	inactive: 0.013	inactive: -0.023	inactive: -0.029	inactive: 0.022	inactive: -0.02	inactive: -0.005
RPL22 (UniProt P35268)	inactive: -0.017	inactive: 0	inactive: 0.035	inactive: -0.042	inactive: -0.004	inactive: -0.024	inactive: -0.054	inactive: 0.03	inactive: 0	inactive: -0.015
RPL24 (UniProt P83731)	inactive: -0.014	inactive: -0.021	inactive: -0.047	inactive: 0.04	inactive: 0	inactive: 0.007	inactive: 0.012	inactive: -0.025	inactive: 0.008	inactive: 0.017
ROCK1 (UniProt Q13464)	inactive: 0.014	inactive: 0.004	inactive: 0.004	inactive: 0.018	inactive: -0.045	inactive: 0.001	inactive: -0.017	inactive: 0.025	inactive: -0.017	inactive: 0.015
RIC8A (UniProt Q9NPQ8)	inactive: 0.016	inactive: 0.011	inactive: 0.044	inactive: -0.083	inactive: -0.007	inactive: 0.075	inactive: -0.034	inactive: -0.034	inactive: 0.035	inactive: 0.019
ROCK2 (UniProt O75116)	inactive: -0.027	inactive: -0.015	inactive: 0.005	inactive: -0.003	inactive: -0.012	inactive: -0.013	inactive: 0.053	inactive: 0.027	inactive: 0	inactive: 0.012
RPA3 (UniProt P35244)	inactive: 0.018	inactive: 0.057	inactive: 0.058	inactive: 0.01	inactive: 0.016	inactive: -0.016	inactive: 0.042	inactive: -0.057	inactive: 0.015	inactive: -0.023
RPL27 (UniProt P61353)	inactive: -0.022	inactive: -0.002	inactive: 0.011	inactive: -0.001	inactive: -0.008	inactive: -0.001	active: 0.572	inactive: -0.079	inactive: 0.019	inactive: -0.015
RHOA (UniProt P61586)	inactive: 0.003	inactive: -0.005	inactive: -0.07	inactive: 0.069	inactive: 0.009	inactive: 0.042	active: 0.45	inactive: -0.06	inactive: 0.009	inactive: 0
RHOT2 (UniProt Q8IXI1)	inactive: 0.019	inactive: -0.006	inactive: 0.072	inactive: -0.011	inactive: -0.064	inactive: -0.022	inactive: -0.086	inactive: 0.047	inactive: -0.021	inactive: -0.003
RPL29 (UniProt P47914)	inactive: -0.034	inactive: 0.031	inactive: -0.019	inactive: 0.083	inactive: -0.016	inactive: -0.034	inactive: 0.091	inactive: -0.051	inactive: -0.127	inactive: 0.039
RHOU (UniProt Q7L0Q8)	inactive: -0.04	inactive: -0.059		inactive: -0.122	inactive: 0.008	inactive: -0.006	inactive: 0.173	inactive: 0.015	inactive: -0.027	inactive: 0.036
RIOX1 (UniProt Q9H6W3)	inactive: -0.185	inactive: -0.097		inactive: -0.274	inactive: 0.15	inactive: 0.034	inactive: -0.155	inactive: -0.01	inactive: 0.014	inactive: 0.059
RIOK2 (UniProt Q9BVS4)	inactive: -0.074	inactive: 0.006	inactive: -0.053	inactive: 0.016	inactive: -0.026	inactive: -0.03	inactive: -0.115	inactive: 0.066	inactive: -0.023	inactive: 0.04
RPL3 (UniProt P39023)	inactive: -0.018	inactive: -0.003	inactive: -0.019	inactive: -0.036	inactive: -0.019	inactive: 0.007	inactive: 0.08	inactive: -0.07	inactive: 0.025	inactive: -0.001
RPL13 (UniProt P26373)	inactive: 0.011	inactive: -0.015	inactive: -0.049	inactive: -0.031	inactive: -0.01	inactive: -0.018	inactive: -0.076	inactive: 0.045	inactive: 0.001	inactive: -0.001
RP9 (UniProt Q8TA86)	inactive: -0.043	inactive: 0.033			inactive: -0.022		inactive: 0.251	inactive: 0.027	inactive: -0.103	inactive: 0.049
RPAP1 (UniProt Q9BWH6)	inactive: -0.008	inactive: -0.012	inactive: 0.012	inactive: -0.028	inactive: -0.053	inactive: 0	inactive: -0.031	inactive: 0.008	inactive: 0.02	inactive: 0.01
RINT1 (UniProt Q6NUQ1)	inactive: 0.065	inactive: 0.022	inactive: 0.095	inactive: -0.055	inactive: -0.113	inactive: 0.088	inactive: -0.048	inactive: -0.044	inactive: 0.095	inactive: 0.058
RING1 (UniProt Q06587)	inactive: 0.027	inactive: -0.005	inactive: 0.013	inactive: -0.031	inactive: -0.024	inactive: -0.039	inactive: -0.077	inactive: 0.08	inactive: 0.02	inactive: -0.003

Quoted at random: 2 entries already listed.
Target	log2 fold change (vemurafenib)	log2 fold change [1]	log2 fold change (barasertib)	log2 fold change [2]	log2 fold change (volasertib)	log2 fold change [3]	log2 fold change [4]	log2 fold change [5]	log2 fold change (saracatinib)	log2 fold change (sotrastaurin)
RHOU (UniProt Q7L0Q8)	inactive: -0.04	inactive: -0.059		inactive: -0.122	inactive: 0.008	inactive: -0.006	inactive: 0.173	inactive: 0.015	inactive: -0.027	inactive: 0.036
RILP (UniProt Q96NA2)	inactive: -0.005	inactive: 0.036	inactive: -0.006	inactive: 0	inactive: 0	inactive: 0.054	inactive: -0.032	inactive: 0.044	inactive: 0.012	inactive: -0.025

Reference: the supplement of paper PMC10849652
